PubChem BioAssay AID1159597 – NIAID, 2016

- Test: 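Role of canonical TLR signalling genes in the human macrophage LPS response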
- System: human THP-1 B5 reporter clone (monocytic leukaemia line), PMA-differentiated to macrophage-like cells
- Reagent: single siRNA against human genes
- Time to read-out: LPS for 4 h before read-out; assayed 48 to 72 h after siRNA transfection
- Treatment: LPS (Salmonella minnesota R595) for 4 h; concentration not given
- Read-out: 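After 4 h LPS, firefly TNF promoter luciferase over renilla, as a plate median/MAD robust z-score averaged across replicates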
- Scale: TNF reporter z-score: higher = stronger TNF promoter activity after LPS
- Call rule: In these data the active calls have TNF reporter z-score, replicate mean at about -1.5 or lower, or at about 1.53 or higher
- Calls: active = clear shift in reporter, either direction; inactive = little shift in reporter
In all, the deposit lists 756 reagents; below is an unselected part. Over the whole deposit, 140 (19%) got an active call. 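Calls mark clear shifts in either direction, lowered or raised; calls are per siRNA, gene-level medians over six siRNAs not deposited.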 The numbers tell different reagents against one gene apart. Not stated in the record: the amount of reagent.

| gene symbol | reagent no. | TNF reporter z-score, replicate mean | outcome |
| --- | --- | --- | --- |
| MAP2K4 | 1 | -0.467 | inactive |
| MAP2K4 | 2 | -0.808 | inactive |
| MAP2K4 | 3 | 0.219 | inactive |
| MAP2K4 | 4 | 0.459 | inactive |
| MAP2K4 | 5 | 0.203 | inactive |
| MAP2K4 | 6 | -0.334 | inactive |
| TLR5 | 1 | -3.64 | active |
| TLR5 | 2 | -1.08 | inactive |
| TLR5 | 3 | 0.0685 | inactive |
| TLR5 | 4 | -1.07 | inactive |
| TLR5 | 5 | -2.69 | active |
| TLR5 | 6 | 0.429 | inactive |
| IRAK3 | 1 | 0.085 | inactive |
| IRAK3 | 2 | -0.753 | inactive |
| IRAK3 | 3 | -0.0216 | inactive |
| IRAK3 | 4 | 0.654 | inactive |
| IRAK3 | 5 | -0.543 | inactive |
| IRAK3 | 6 | -0.249 | inactive |
| PIK3R3 | 1 | -0.805 | inactive |
| PIK3R3 | 2 | 0.324 | inactive |
| PIK3R3 | 3 | 0.155 | inactive |
| PIK3R3 | 4 | -1.49 | inactive |
| PIK3R3 | 5 | 0.217 | inactive |
| PIK3R3 | 6 | -2.54 | active |
| ARF6 | 1 | -0.585 | inactive |
| ARF6 | 2 | 0.0317 | inactive |
| ARF6 | 3 | 0.372 | inactive |
| ARF6 | 4 | -0.916 | inactive |
| ARF6 | 5 | 1.23 | inactive |
| ARF6 | 6 | 0.685 | inactive |
| CCL3 | 1 | -1.28 | inactive |
| CCL3 | 2 | -0.192 | inactive |
| CCL3 | 3 | -0.65 | inactive |
| CCL3 | 4 | -0.617 | inactive |
| CCL3 | 5 | 0.87 | inactive |
| CCL3 | 6 | -1.25 | inactive |
| MAPK12 | 1 | -0.268 | inactive |
| MAPK12 | 2 | -0.0888 | inactive |
| MAPK12 | 3 | -0.123 | inactive |
| MAPK12 | 4 | -0.268 | inactive |
| MAPK12 | 5 | 0.614 | inactive |
| MAPK12 | 6 | -1.7 | active |
| IFNAR1 | 1 | -1.91 | active |
| IFNAR1 | 2 | -1.75 | active |
| IFNAR1 | 3 | 0.0474 | inactive |
| IFNAR1 | 4 | -2.13 | active |
| IFNAR1 | 5 | -0.353 | inactive |
| IFNAR1 | 6 | -0.34 | inactive |
| MAP3K8 | 1 | -0.947 | inactive |
| MAP3K8 | 2 | -1.95 | active |
| MAP3K8 | 3 | -0.487 | inactive |
| MAP3K8 | 4 | -1.27 | inactive |
| MAP3K8 | 5 | -2.39 | active |
| MAP3K8 | 6 | -0.934 | inactive |
| NFKBIA | 1 | 0.0248 | inactive |
| NFKBIA | 2 | -0.163 | inactive |
| NFKBIA | 3 | 0.758 | inactive |
| NFKBIA | 4 | -1.91 | active |
| NFKBIA | 5 | -1.58 | active |
| NFKBIA | 6 | -0.306 | inactive |
